Source: article PMC10808667
Read-outs that look alike come from different tables or passages of the source. No constants are given. Whether binding was seen depends on the method and setting. In cells and extracts the contact can be indirect. Some binding calls cover weakened binding; strength is not graded here. Tags and fused reporters may be left off the sequences shown.

Amino acid sequences for entries named in this document (tags omitted).
UniProt P51681: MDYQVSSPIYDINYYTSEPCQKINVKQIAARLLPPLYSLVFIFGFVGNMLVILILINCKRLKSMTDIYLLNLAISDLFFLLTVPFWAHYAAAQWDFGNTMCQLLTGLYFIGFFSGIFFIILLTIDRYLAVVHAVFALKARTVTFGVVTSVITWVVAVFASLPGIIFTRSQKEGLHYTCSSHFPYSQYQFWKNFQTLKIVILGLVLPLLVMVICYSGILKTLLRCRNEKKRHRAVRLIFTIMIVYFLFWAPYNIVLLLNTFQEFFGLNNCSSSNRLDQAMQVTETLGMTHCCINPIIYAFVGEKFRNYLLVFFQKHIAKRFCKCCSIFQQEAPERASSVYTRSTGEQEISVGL
UniProt P41597: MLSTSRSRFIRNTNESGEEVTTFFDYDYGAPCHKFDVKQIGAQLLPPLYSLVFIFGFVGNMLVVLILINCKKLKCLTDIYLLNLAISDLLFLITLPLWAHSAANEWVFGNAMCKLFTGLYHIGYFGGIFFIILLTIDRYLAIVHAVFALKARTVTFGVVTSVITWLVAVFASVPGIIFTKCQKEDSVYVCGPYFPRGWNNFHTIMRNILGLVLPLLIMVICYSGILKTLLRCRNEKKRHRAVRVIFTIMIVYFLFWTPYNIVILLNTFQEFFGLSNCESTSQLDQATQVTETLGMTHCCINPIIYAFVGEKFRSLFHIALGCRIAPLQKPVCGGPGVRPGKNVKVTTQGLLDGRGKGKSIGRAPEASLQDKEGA
UniProt P51685: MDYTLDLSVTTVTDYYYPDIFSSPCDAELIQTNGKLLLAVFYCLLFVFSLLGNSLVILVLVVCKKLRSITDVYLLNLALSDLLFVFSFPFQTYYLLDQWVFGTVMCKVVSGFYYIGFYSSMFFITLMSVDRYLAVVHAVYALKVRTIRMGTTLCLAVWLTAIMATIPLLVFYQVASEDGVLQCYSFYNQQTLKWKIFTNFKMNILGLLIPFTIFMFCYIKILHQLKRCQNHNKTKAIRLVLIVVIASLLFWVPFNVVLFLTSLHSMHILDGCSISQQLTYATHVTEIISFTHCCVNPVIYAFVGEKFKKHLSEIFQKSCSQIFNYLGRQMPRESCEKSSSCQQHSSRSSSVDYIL

T1: Recombinant flag-CCL16 (human) (UniProt O15467)
T1 sequence: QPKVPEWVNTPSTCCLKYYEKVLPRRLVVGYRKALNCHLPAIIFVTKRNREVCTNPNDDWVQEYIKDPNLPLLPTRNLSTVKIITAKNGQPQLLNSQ

B1: CCR1 (receptor, UniProt P32246 1-355)
chain: METPNTTEDYDTTTEFDYGDATPCQKVNERAFGAQLLPPLYSLVFVIGLVGNILVVLVLVQYKRLKNMTSIYLLNLAISDLLFLFTLPFWIDYKLKDDWVFGDAMCKILSGFYYTGLYSEIFFIILLTIDRYLAIVHAVFALRARTVTFGVITSIIIWALAILASMPGLYFSKTQWEFTHHTCSLHFPHESLREWKLFQALKLNLFGLVLPLLVMIICYTGIIKILLRRPNEKKSKAVRLIFVIMIIFFLFWTPYNLTILISVFQDFLFTHECEQSRHLDLAVQVTEVIAYTHCCVNPVIYAFVGERFRKYLRQLFHRRVAVHLVKWLPFLSVDRLERVSSTSPSTGEHELSAGF

Columns and labels:
[1] = molecular target: T1, Recombinant flag-CCL16 (human); assay: co-IP; Flag-CCL16 recombinant protein added to THP1 cells for 24 h; cells lysed in RIPA buffer with proteinase inhibitors; lysate incubated overnight at 4°C with Flag or IgG antibody, protein A/G beads for 4 h, three washes with RIPA; immunoblot with Flag/CCR1/CCR2/CCR5/CCR8 antibodies; only the target purified
[2] = molecular target: T1, Recombinant flag-CCL16 (human); assay: as above; remark: listed apart in the source

Molecule | binding [1] | binding [2]
CCR5 (from UniProt P51681 1-352) (receptor) | binds weakly | –
CCR2 (from UniProt P41597 1-374) (receptor) | binds weakly | –
CCR8 (from UniProt P51685 1-355) (receptor) | binds weakly | –
B1 | – | binds
